Values from PubChem BioAssay AID652272 (Drosophila RNAi Screening Center, 2013).

Test: 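Genome-wide knock-down search for components of Hedgehog signalling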 (primary screen)
System: Drosophila clone 8 (Cl8) cells
Knock-down reagent: long dsRNA against Drosophila genes
Measured: 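Firefly light from a Hedgehog-responsive ptc promoter reporter and Renilla reference light, both read on a plate reader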
Scale: firefly Hh reporter signal: higher = more ptc reporter light; Renilla reference signal: higher = more Renilla control light
Rule for the call: 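Hit when the z-score averaged over two replicates is under -2 or over +3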
Calls: active = hit: reporter lowered or raised; inactive = not a hit
In all, the deposit lists about 21,000 reagents; shown is an unselected part of those that have a named target and a result. Of all reagents, 503 (2.4%) got an active call. 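Raw plate light values, not normalised; calls rest on replicate z-scores that were not deposited; hits include reporter decreases as well as increases.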 Reagents against one gene are numbered here. Not given: the amount of reagent, the time to read-out.

gene | reagent | firefly Hh reporter signal, replicate 1 | firefly Hh reporter signal, replicate 2 | firefly Hh reporter signal, replicate 3 | Renilla reference signal, replicate 1 | Renilla reference signal, replicate 2 | outcome
Drat (Death resistor Adh domain containing target) | 1 | 90089 | 60617 | – | 2884 | 1858 | inactive
Fak (Focal adhesion kinase) | 1 | 88685 | 49350 | – | 1826 | 3793 | inactive
mid (midline) | 1 | 1.13e5 | 6.62e5 | 75707 | 1888 | 34114 | inactive
Mat89Ba (Maternal transcript 89Ba) | 1 | 91986 | 79809 | – | 4917 | 3442 | inactive
fand (fandango) | 1 | 73424 | 41418 | – | 4148 | 1936 | inactive
CG2104 | 1 | 94704 | 1.56e5 | – | 3895 | 4611 | inactive
CG9776 | 1 | 1.69e5 | 1.23e5 | – | 7112 | 4768 | inactive
MED19 (Mediator complex subunit 19) | 1 | 94871 | 40437 | – | 3932 | 2204 | inactive
DIP1 (DISCO Interacting Protein 1) | 1 | 1.38e5 | 2.95e5 | – | 5115 | 12468 | inactive
Sgsh (N-sulfoglucosamine sulfohydrolase) | 1 | 4.33e5 | 1.05e5 | – | 21655 | 2752 | inactive
Nf-YB (Nuclear factor Y-box B) | 1 | 92717 | 69699 | – | 2139 | 4979 | inactive
rhea | 1 | 61825 | 55395 | – | 6696 | 3601 | inactive
CG15471 | 1 | 70032 | 1.92e5 | – | 2065 | 7728 | inactive
Dbp73D (Dead box protein 73D) | 1 | 83430 | 44360 | – | 4364 | 1858 | inactive
CG5011 | 1 | 1.26e5 | 1.06e5 | – | 5077 | 4497 | inactive
Ccp84Ab | 1 | 81075 | 1.07e5 | – | 3840 | 3712 | inactive
Fer1HCH (Ferritin 1 heavy chain homologue) | 1 | 96742 | 66640 | – | 2668 | 2420 | inactive
Acn (Acinus) | 1 | 1.00e5 | 66272 | – | 3906 | 2699 | inactive
SerT (Serotonin transporter) | 1 | 90528 | 61536 | – | 1776 | 5158 | inactive
Fdx2 (Ferredoxin 2) | 1 | 1.32e5 | 56892 | – | 4761 | 217 | inactive
CG4045 | 1 | 1.47e5 | 1.08e5 | – | 3395 | 3674 | inactive
Cdc45 (Cell division cycle 45) | 1 | 90592 | 1.10e5 | – | 1813 | 4172 | inactive
Cdc45 (Cell division cycle 45) | 2 | 1.32e5 | 66576 | – | 8775 | 2851 | inactive
Chd64 | 1 | 1.16e5 | 66739 | – | 4949 | 2699 | inactive

The list goes on (4 carried over from the part before).
gene | reagent | firefly Hh reporter signal, replicate 1 | firefly Hh reporter signal, replicate 2 | firefly Hh reporter signal, replicate 3 | Renilla reference signal, replicate 1 | Renilla reference signal, replicate 2 | outcome
CG4045 | 1 | 1.47e5 | 1.08e5 | – | 3395 | 3674 | inactive
Cdc45 (Cell division cycle 45) | 1 | 90592 | 1.10e5 | – | 1813 | 4172 | inactive
Cdc45 (Cell division cycle 45) | 2 | 1.32e5 | 66576 | – | 8775 | 2851 | inactive
Chd64 | 1 | 1.16e5 | 66739 | – | 4949 | 2699 | inactive
Obp83g (Odorant-binding protein 83g) | 1 | 76248 | 1.00e5 | – | 3184 | 2992 | inactive
tup (tailup) | 1 | 1.07e5 | 62340 | – | 4391 | 3260 | inactive
CG30060 | 1 | 1.22e5 | 2.15e5 | – | 3080 | 9090 | inactive
CG34328 | 1 | 5.42e5 | 1.83e5 | – | 31760 | 4278 | inactive
Cp7Fa (Chorion protein a at 7F) | 1 | 68885 | 3.38e5 | – | 1914 | 12631 | inactive
Cp7Fa (Chorion protein a at 7F) | 2 | 50336 | 1.72e5 | – | 1728 | 8347 | inactive
cwo (clockwork orange) | 1 | 58672 | 62995 | – | 2737 | 2402 | inactive
LSm7 (Like Sm 7) | 1 | 1.13e5 | 41097 | – | 3170 | 4389 | inactive
Spn55B (Serpin 55B) | 1 | 99273 | 7.57e5 | 48177 | 3664 | 45771 | inactive
CG11414 | 1 | 82900 | 39424 | – | 3409 | 1834 | inactive
CG2839 | 1 | 1.31e5 | 98916 | – | 3392 | 2580 | inactive
CG13841 | 1 | 38651 | 3.29e5 | – | 1707 | 20672 | inactive
RyR (Ryanodine receptor) | 1 | 1.22e5 | 53952 | – | 2982 | 5024 | inactive
CG1416 | 1 | 88619 | 82688 | – | 3610 | 2908 | inactive
CG1791 | 1 | 73698 | 54579 | – | 1712 | 1498 | inactive
